Results are given in words; binding and its absence hold for the method and conditions named. For part of these data: Binding calls can cover weak binding; strength is not graded here. For part of these data: Tags and fused reporters may be left off the sequences shown. For part of these data: In cells and extracts the contact can be indirect.
target: T1, MKK3 fused to the GAL4 DNA-binding domain (BD) (Arabidopsis thaliana) (UniProt O80396); test: two-hybrid
T1 sequence: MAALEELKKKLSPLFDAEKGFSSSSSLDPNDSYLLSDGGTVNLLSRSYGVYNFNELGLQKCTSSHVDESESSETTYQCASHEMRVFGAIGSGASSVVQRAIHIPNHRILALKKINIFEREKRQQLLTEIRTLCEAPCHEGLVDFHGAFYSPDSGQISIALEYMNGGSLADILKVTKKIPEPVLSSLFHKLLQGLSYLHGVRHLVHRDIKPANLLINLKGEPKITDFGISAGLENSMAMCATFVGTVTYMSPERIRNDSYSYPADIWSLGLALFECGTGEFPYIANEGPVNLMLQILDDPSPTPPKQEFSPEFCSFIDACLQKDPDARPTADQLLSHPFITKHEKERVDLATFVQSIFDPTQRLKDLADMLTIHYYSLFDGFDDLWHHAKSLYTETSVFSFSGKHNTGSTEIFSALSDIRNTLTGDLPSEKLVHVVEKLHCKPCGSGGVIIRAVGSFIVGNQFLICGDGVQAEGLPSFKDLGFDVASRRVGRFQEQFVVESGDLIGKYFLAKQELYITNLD

Sequences of proteins named here, by UniProt entry; tags and fusion partners are left off. A change or cut given only in a name is not applied to a line headed by its entry.
UniProt Q94AT1: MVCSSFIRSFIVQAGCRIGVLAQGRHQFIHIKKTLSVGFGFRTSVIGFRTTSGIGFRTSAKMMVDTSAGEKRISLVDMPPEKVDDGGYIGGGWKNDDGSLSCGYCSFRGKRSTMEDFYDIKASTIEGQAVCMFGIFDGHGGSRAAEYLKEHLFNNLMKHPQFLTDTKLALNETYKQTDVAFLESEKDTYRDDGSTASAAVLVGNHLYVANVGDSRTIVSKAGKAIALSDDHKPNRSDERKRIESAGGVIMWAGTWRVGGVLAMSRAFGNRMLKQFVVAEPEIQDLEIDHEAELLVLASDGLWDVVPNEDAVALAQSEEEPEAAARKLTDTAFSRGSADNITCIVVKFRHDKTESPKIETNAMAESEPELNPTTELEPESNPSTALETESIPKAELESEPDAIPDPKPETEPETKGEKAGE
UniProt Q39026: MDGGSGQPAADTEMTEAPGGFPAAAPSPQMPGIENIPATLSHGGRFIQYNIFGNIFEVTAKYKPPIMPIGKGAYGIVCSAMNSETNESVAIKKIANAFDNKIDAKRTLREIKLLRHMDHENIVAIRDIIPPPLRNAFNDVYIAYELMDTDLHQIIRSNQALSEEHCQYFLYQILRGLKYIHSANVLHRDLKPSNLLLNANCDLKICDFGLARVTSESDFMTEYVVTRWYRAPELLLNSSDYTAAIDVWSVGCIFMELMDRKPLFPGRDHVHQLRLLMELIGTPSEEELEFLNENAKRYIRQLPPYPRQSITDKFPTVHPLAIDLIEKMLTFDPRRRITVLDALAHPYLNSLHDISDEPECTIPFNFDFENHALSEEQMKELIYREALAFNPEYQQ
UniProt O65472: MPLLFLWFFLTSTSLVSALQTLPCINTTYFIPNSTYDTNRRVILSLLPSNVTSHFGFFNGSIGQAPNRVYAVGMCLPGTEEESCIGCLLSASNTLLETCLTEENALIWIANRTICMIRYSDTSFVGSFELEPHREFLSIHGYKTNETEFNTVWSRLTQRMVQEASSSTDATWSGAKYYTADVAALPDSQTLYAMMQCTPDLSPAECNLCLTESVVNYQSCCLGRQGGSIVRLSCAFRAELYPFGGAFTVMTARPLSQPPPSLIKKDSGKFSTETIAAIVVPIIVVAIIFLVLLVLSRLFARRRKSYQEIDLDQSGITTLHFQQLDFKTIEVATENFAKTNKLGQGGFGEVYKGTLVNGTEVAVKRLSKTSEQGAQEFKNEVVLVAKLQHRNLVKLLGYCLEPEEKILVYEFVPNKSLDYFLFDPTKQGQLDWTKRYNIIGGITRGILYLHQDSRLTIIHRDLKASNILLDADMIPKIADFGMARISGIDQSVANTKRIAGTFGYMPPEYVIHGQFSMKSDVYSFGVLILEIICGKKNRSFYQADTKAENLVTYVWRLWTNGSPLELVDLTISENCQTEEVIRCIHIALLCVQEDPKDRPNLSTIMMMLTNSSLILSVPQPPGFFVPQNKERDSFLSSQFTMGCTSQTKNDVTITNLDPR
UniProt Q8H199: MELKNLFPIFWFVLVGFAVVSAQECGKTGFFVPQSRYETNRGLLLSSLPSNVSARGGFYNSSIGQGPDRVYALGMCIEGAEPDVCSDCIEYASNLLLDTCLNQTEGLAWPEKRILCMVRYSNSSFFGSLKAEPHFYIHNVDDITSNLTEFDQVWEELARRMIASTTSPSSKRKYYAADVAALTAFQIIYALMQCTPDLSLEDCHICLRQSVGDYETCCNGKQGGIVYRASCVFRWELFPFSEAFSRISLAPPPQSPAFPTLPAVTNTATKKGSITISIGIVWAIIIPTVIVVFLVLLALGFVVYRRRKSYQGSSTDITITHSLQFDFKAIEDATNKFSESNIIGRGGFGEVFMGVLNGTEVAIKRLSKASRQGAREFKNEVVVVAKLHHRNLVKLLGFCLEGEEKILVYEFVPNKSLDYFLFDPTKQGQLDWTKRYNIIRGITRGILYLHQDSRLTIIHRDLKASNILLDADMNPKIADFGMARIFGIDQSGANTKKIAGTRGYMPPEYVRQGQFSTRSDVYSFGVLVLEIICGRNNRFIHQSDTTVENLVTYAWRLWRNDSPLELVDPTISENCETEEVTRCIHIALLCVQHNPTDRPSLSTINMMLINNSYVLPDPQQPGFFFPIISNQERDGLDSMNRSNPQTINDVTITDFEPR
UniProt O65476: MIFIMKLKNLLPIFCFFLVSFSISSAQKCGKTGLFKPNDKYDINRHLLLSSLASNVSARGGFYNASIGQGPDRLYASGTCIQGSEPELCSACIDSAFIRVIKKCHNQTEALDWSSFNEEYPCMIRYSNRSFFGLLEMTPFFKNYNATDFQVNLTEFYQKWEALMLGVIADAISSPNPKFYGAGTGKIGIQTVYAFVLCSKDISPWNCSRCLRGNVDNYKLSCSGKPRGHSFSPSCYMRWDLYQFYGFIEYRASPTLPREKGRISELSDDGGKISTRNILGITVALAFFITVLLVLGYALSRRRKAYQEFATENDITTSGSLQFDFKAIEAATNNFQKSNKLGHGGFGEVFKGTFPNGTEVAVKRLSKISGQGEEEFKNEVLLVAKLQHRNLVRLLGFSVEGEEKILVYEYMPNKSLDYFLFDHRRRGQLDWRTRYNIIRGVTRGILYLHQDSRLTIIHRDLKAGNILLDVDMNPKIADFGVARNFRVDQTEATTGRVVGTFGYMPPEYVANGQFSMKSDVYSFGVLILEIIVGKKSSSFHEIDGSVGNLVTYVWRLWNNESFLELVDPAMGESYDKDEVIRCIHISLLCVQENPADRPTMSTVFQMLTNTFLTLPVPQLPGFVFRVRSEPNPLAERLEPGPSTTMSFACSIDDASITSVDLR
UniProt Q8RX80: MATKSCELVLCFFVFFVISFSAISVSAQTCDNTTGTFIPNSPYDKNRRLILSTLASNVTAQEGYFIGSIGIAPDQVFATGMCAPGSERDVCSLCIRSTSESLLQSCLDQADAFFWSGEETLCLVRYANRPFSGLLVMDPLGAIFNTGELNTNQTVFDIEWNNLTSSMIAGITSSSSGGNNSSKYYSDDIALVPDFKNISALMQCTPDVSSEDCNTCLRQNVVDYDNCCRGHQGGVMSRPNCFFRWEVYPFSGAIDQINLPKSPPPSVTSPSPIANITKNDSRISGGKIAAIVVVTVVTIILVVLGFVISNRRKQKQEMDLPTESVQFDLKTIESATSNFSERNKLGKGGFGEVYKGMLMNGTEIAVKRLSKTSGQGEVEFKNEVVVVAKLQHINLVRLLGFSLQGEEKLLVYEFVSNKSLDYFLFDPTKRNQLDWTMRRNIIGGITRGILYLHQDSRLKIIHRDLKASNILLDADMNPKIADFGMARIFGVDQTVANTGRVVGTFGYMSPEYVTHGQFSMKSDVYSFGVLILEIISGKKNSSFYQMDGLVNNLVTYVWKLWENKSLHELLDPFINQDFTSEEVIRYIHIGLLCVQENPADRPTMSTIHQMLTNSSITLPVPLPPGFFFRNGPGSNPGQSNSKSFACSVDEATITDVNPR
UniProt Q3E9X6: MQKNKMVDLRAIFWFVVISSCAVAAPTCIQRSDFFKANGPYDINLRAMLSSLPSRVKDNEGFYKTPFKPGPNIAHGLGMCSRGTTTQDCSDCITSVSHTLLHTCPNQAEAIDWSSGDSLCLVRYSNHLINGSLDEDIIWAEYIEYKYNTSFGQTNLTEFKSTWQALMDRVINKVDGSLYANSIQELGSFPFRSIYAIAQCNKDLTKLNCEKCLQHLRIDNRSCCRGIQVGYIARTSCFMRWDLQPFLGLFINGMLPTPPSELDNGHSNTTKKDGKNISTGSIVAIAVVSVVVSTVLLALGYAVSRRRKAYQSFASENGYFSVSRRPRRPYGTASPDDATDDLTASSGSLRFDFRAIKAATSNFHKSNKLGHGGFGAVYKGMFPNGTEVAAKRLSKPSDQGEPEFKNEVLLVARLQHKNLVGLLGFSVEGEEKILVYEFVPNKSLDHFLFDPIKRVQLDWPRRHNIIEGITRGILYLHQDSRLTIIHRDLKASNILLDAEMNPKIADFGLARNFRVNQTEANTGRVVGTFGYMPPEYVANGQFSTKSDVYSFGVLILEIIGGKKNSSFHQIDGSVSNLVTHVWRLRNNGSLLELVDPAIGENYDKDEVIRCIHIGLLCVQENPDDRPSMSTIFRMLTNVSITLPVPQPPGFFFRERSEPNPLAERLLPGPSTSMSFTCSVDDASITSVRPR
UniProt O65483: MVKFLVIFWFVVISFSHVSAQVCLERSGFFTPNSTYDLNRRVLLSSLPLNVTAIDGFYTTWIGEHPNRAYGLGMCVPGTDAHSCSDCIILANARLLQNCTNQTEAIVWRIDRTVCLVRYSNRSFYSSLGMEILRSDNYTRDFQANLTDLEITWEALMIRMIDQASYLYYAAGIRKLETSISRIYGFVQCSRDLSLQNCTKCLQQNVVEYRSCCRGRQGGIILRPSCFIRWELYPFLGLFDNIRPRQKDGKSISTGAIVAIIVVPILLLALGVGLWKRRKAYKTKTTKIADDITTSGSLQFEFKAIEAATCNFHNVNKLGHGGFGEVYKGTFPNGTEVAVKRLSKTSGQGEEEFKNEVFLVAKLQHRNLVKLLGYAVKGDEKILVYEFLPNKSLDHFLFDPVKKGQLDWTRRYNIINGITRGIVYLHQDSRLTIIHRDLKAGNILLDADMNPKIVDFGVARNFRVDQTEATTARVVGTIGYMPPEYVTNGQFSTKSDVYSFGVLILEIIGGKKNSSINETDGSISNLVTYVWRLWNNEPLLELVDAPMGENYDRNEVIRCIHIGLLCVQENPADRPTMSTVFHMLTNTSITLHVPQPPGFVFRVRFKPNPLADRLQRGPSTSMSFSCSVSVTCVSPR
UniProt Q9LDT0: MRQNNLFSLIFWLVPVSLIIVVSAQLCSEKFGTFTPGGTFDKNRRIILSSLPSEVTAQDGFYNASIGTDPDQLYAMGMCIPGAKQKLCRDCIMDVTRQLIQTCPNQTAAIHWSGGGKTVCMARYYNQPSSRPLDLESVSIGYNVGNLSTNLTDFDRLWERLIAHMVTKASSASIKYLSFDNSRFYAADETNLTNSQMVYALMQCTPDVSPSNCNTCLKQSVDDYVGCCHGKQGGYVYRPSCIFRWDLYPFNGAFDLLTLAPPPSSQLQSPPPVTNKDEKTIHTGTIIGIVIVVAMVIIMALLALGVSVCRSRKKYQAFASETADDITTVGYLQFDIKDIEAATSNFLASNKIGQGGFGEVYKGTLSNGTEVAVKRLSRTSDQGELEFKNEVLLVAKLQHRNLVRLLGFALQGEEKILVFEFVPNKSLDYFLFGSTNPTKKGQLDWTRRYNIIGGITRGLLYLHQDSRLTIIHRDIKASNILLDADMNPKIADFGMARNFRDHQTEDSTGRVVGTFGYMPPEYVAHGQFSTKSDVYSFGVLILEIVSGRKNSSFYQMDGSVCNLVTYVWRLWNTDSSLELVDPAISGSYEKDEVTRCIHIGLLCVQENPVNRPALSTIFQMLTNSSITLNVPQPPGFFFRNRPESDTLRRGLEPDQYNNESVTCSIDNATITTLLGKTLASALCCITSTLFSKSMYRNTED
UniProt Q9LDN1: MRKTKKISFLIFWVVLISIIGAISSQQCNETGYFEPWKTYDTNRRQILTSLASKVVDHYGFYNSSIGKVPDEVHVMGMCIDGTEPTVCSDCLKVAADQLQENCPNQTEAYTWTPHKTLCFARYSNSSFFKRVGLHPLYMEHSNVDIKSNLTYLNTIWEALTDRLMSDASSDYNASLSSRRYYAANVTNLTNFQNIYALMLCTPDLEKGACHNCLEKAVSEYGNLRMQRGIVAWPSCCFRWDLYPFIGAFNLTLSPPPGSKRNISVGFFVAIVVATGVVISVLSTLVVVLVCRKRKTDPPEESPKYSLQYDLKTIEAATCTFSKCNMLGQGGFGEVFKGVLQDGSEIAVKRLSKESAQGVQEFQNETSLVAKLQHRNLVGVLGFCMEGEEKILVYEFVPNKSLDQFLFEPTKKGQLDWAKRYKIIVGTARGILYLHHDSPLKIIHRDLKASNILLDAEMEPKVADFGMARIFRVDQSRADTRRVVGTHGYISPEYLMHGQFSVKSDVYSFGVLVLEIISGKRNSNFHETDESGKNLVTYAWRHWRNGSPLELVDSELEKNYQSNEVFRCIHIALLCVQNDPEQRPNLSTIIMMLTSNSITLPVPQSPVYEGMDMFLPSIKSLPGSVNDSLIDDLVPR

Question: For “PP2C76 fused to the GAL4-activating domain (AD) (from UniProt Q94AT1) (enzyme)”, which binding is on record?
Answer: no binding

target: MPK6 fused to the GAL4 DNA-binding domain (BD) (Arabidopsis thaliana) (UniProt Q39026); test: two-hybrid

Question: For “PP2C76 fused to the GAL4-activating domain (AD) (from UniProt Q94AT1) (enzyme)”, which binding is on record?
Answer: no binding

target: T2, MKKK20 fused to the GAL4 DNA-binding domain (BD-MKKK20) (Arabidopsis thaliana) (UniProt Q9SND6); test: two-hybrid
T2 sequence: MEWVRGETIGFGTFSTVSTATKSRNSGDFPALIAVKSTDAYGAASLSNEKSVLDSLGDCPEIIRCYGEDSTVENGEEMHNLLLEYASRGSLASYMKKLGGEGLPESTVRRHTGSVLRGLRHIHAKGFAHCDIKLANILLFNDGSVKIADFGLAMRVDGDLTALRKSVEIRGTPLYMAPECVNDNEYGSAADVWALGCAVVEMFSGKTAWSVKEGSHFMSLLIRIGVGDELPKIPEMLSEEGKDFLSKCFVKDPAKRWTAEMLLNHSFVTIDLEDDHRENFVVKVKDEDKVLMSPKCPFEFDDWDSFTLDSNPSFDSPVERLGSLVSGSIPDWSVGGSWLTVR

Question: How did the binding turn out when “CRK12 cytosolic kinase domain fused to AD (CRK12-CD) (from UniProt O65472) (domain or fragment)” was run?
Answer: binds

Question: For “CRK14 cytosolic kinase domain fused to AD (CRK14-CD) (from UniProt Q8H199) (domain or fragment)”, which binding is on record?
Answer: binds

Question: With “CRK16 cytosolic kinase domain fused to AD (CRK16-CD) (from UniProt O65476) (domain or fragment)” as the substance, how does the binding read?
Answer: binds weakly

Question: Which binding does the source give for “CRK18 cytosolic kinase domain fused to AD (CRK18-CD) (from UniProt Q8RX80) (domain or fragment)” here?
Answer: binds

Question: Which binding does the source give for “CRK21 cytosolic domain fused to the GAL4-activating domain (AD-CRK21-CD) (from UniProt Q3E9X6) (domain or fragment)” here?
Answer: binds

Question: With “CRK24 cytosolic kinase domain fused to AD (CRK24-CD) (from UniProt O65483) (domain or fragment)” as the substance, how does the binding read?
Answer: binds

Question: With “CRK30 cytosolic kinase domain fused to AD (CRK30-CD) (from UniProt Q9LDT0) (domain or fragment)” as the substance, how does the binding read?
Answer: binds

Question: Which binding does the source give for “CRK33 cytosolic kinase domain fused to AD (CRK33-CD) (from UniProt Q9LDN1) (domain or fragment)” here?
Answer: binds

Question: “PP2C76 fused to the GAL4-activating domain (AD) (from UniProt Q94AT1) (enzyme)” was tested. Which binding did it give?
Answer: binds

target: T3, MKKK20-cYFP (Arabidopsis thaliana) (UniProt Q9SND6); test: split reporter
T3 sequence: T2 sequence

Question: With “PP2C76, nYFP-tagged (from UniProt Q94AT1) (enzyme)” as the substance, how does the binding read?
Answer: binds

From doi:10.1101/2022.03.27.486008
